Laboratory results reported in PMC7819943, “Rice protein-binding microarrays: a tool to detect cis-acting elements near promoter regions in rice”.
This is one part of the list.

Sequences of proteins named here, by UniProt entry; tags and fusion partners are left off.
UniProt Q0JBA9, entry or part of it: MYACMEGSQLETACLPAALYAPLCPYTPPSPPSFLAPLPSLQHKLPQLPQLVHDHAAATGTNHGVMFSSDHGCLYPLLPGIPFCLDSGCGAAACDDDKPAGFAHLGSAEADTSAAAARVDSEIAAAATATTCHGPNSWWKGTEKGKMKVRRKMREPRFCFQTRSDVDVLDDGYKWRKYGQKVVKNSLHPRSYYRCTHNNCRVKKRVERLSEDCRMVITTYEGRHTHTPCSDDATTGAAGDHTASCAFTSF

What follows are sequences tested against OsWRKY34 (Oryza sativa, UniProt Q0JBA9 1-250) (assay: protein-binding microarray (RPBM); PBS, 2% BSA, 51.3 ng/ul salmon testes DNA, 50 uM zinc acetate, 200 nM TF, 25 C, 1 h; high values mean tight binding). Conditions: protein: recombinant; tags: N-terminal polyhistidine and DsRed monomer fusion (pET32a); label: CyDye5-dUTP incorporated in the synthesized complementary strand; 3' TTTTT single-stranded linker to array surface; dsDNA, one strand shown.
Method in brief: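 Transcription factors were made in E. coli BL21-CodonPlus as N-terminal fusions to a polyhistidine tag and DsRed, then purified on Ni–NTA. After primer extension with Cy5-dUTP and blocking with 2% BSA, a custom Agilent array was exposed for 1 h at 25 °C to 200 nM protein in PBS, 2% BSA, salmon testes DNA and 50 µM zinc acetate. Washed arrays were scanned on an Axon 4000B, and the binding signal is per-feature fluorescence intensity in arbitrary units.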
With “ATTTATGTTTTGGGCCTTTTCATCGTAATTTGTTTTTCAGCGGAGTCACCTAGTGCAG” the binding signal was 9450 fluorescence intensity (a.u.).
In the case of “TGCCGTCGGCCCCACCTGTCATCACCTACCCCTGGTCGACCGGAGTCACCTAGTGCAG”, the binding signal is reported as 8990 fluorescence intensity (a.u.).
“TTTTAACGTGGTTCCTTTTTCTGCATTGACTTTTAAGTCACGGAGTCACCTAGTGCAG” was tested, and the binding signal was 10100 fluorescence intensity (a.u.).
In the case of “CCGTCGCTGCAGCTTTACTCTGGCCCGATTTCCCGCATAACGGAGTCACCTAGTGCAG”, the binding signal is reported as 11000 fluorescence intensity (a.u.).
“CTTTTCAACTTATATCGCTCCTGTTCTCATTTTACTATTTCGGAGTCACCTAGTGCAG” was tested, and the binding signal was 11700 fluorescence intensity (a.u.).
In the case of “CTCCCTCCTCGCTTGCACTCGCTGCTCTCTCTCTCTCTCTCGGAGTCACCTAGTGCAG”, the binding signal is reported as 8930 fluorescence intensity (a.u.).
For “AACTTTGGTCTCATGCAAAATTTTCACATCGTACACTCCTCGGAGTCACCTAGTGCAG”, the binding signal was 9430 fluorescence intensity (a.u.).
“AACCGGCCAACCGCCCCAGATATGGCCTCTCGCGCGCGCGCGGAGTCACCTAGTGCAG” was tested, and the binding signal was 9930 fluorescence intensity (a.u.).
“GTACTCTCTCTCTCTCTCTGTGTTGATAACCCCAATACAACGGAGTCACCTAGTGCAG” was tested, and the binding signal was 8130 fluorescence intensity (a.u.).
In the case of “ATAGGTAGATTGTTGGTGATGCTCTAAGGGTGGGTTTTGACGGAGTCACCTAGTGCAG”, the binding signal is reported as 13400 fluorescence intensity (a.u.).
For “GCCCCTTGCTGTCCACTGCCTGAGAAGCCGAGACCACTACCGGAGTCACCTAGTGCAG”, the binding signal was 8690 fluorescence intensity (a.u.).
In the case of “CCACTCACAGGCTCAACTCAACTCCACCCGAATCCGCAAGCGGAGTCACCTAGTGCAG”, the binding signal is reported as 8320 fluorescence intensity (a.u.).
For “CACTCACCGACCCGCCGCCGTCTCTCCCTCGTGTTCTCCGCGGAGTCACCTAGTGCAG”, the binding signal was 8900 fluorescence intensity (a.u.).
“TTCATACTATCGGTCTCATCTTTTTGCTTATACTTATACTCGGAGTCACCTAGTGCAG” was tested, and the binding signal was 8380 fluorescence intensity (a.u.).
“TTCCACGCCCTCTTAAGTGGTTCCCGCACACATGATGTCCCGGAGTCACCTAGTGCAG” was tested, and the binding signal was 8830 fluorescence intensity (a.u.).
With “GGTGCTCACGCTGGTCGCCTTTGTTCTACAGCTCGAAATACGGAGTCACCTAGTGCAG” the binding signal was 8690 fluorescence intensity (a.u.).
In the case of “ATCTAACATTTCGCGGTTGCATTACCATCTCTTGCCTCTTCGGAGTCACCTAGTGCAG”, the binding signal is reported as 16300 fluorescence intensity (a.u.).
In the case of “TTGTCTGTTGGCTTCTTTTGGGCTAATCTCCCTATGCACACGGAGTCACCTAGTGCAG”, the binding signal is reported as 9370 fluorescence intensity (a.u.).
For “CAACTGCTACTAGTACTATCTCCTCCCGTCTCGTGCTCTTCGGAGTCACCTAGTGCAG”, the binding signal was 8320 fluorescence intensity (a.u.).
With “TTGTAGCAAAATGTTTTATGAGGTGATTTTGTTGTGTTTCCGGAGTCACCTAGTGCAG” the binding signal was 8380 fluorescence intensity (a.u.).
For “GATATGACATTTCTACCCCTCATTGATATGCATTATATTTCGGAGTCACCTAGTGCAG”, the binding signal was 9720 fluorescence intensity (a.u.).
“GGGAGGGGCGGCCCAGCGGCAGCGGAGGGGAGGGAGGATGCGGAGTCACCTAGTGCAG” was tested, and the binding signal was 8640 fluorescence intensity (a.u.).
“GCTGGATTTTATTTTCTGTTGTTACTACTATATATGCTTACGGAGTCACCTAGTGCAG” was tested, and the binding signal was 11300 fluorescence intensity (a.u.).
In the case of “GGTTGCCGCGTTGTCCTCTGTCTCTACACGGACACAATGTCGGAGTCACCTAGTGCAG”, the binding signal is reported as 8490 fluorescence intensity (a.u.).
For “CGTGGTGCTCGCGTCCCTTCTCCTCGTCGTCTCCGGCGAACGGAGTCACCTAGTGCAG”, the binding signal was 10400 fluorescence intensity (a.u.).
In the case of “ATCTATTTGAGTTTAATTTTTGTATGGTTGGTTATTGTGTCGGAGTCACCTAGTGCAG”, the binding signal is reported as 8700 fluorescence intensity (a.u.).
In the case of “ACTTCTGCGCCGTCGCTTTTATGGTTTTATGTAATGTTGTCGGAGTCACCTAGTGCAG”, the binding signal is reported as 8100 fluorescence intensity (a.u.).
With “TAGCTTCTCGTCGACGCTTTTGCCTCCGTCTATATAAGACCGGAGTCACCTAGTGCAG” the binding signal was 9530 fluorescence intensity (a.u.).
In the case of “GTGGATTTTTTCGTGTGTTCTTCAAAATGTTCCTAGTCAACGGAGTCACCTAGTGCAG”, the binding signal is reported as 8200 fluorescence intensity (a.u.).
“TCAGTTTTTCTTCTACTATATTCGATGCATCTTGTTATGTCGGAGTCACCTAGTGCAG” was tested, and the binding signal was 9320 fluorescence intensity (a.u.).
With “TCACGTTTTTAATTATTCCGGACATTCTAAACCACGTTTACGGAGTCACCTAGTGCAG” the binding signal was 9180 fluorescence intensity (a.u.).
For “TTTGTGTTTCTTCTTTAGCGACGGTGTGTTTATCCGTCTTCGGAGTCACCTAGTGCAG”, the binding signal was 9550 fluorescence intensity (a.u.).
For “AACAACAACGTCCCGCCGCATCTCCTGCTCCGGCGCCGGCCGGAGTCACCTAGTGCAG”, the binding signal was 11100 fluorescence intensity (a.u.).
For “TCCTTTTGTTGTTCGAACTTACTCTCTCATCATCTTTGGTCGGAGTCACCTAGTGCAG”, the binding signal was 8700 fluorescence intensity (a.u.).
For “GGTATATTTGGAATAAGTTTCTTTTTACCCTGTTTATATACGGAGTCACCTAGTGCAG”, the binding signal was 8640 fluorescence intensity (a.u.).
“GGAGATCCTCCGGGCTTTTGGGTTGGTTTCTTTCGTTGGACGGAGTCACCTAGTGCAG” was tested, and the binding signal was 12600 fluorescence intensity (a.u.).
With “ATAACTATTTAATCCCTTGGCTATGTTATTTTGGCAGCAGCGGAGTCACCTAGTGCAG” the binding signal was 8490 fluorescence intensity (a.u.).
In the case of “CACAGTACTAACATTTTCCATTGCTTATAATTTGCAGATGCGGAGTCACCTAGTGCAG”, the binding signal is reported as 8450 fluorescence intensity (a.u.).
For “AATTTGGTGGGGTCGGGGTGGGTGCTTTAACTGGGGAGATCGGAGTCACCTAGTGCAG”, the binding signal was 24500 fluorescence intensity (a.u.).
For “ACTACACACGCAACACTACACTTTATCAAACTTTTTTTTGCGGAGTCACCTAGTGCAG”, the binding signal was 10600 fluorescence intensity (a.u.).
“CCCGCCGCGTCAGTTCCGCGTCCCCGCAGGCCGCAGCCAACGGAGTCACCTAGTGCAG” was tested, and the binding signal was 8270 fluorescence intensity (a.u.).
“TATACATCACTGTGTTCATTATGAGCTTGGCTATGCAATACGGAGTCACCTAGTGCAG” was tested, and the binding signal was 8560 fluorescence intensity (a.u.).
